This passage reports binding results from publication PMC7806930.

Chains of the proteins cited; added tags and fusions are not shown. Lines headed by an entry give the natural chain unless they say otherwise; changes in a name come on top.
UniProt Q16236: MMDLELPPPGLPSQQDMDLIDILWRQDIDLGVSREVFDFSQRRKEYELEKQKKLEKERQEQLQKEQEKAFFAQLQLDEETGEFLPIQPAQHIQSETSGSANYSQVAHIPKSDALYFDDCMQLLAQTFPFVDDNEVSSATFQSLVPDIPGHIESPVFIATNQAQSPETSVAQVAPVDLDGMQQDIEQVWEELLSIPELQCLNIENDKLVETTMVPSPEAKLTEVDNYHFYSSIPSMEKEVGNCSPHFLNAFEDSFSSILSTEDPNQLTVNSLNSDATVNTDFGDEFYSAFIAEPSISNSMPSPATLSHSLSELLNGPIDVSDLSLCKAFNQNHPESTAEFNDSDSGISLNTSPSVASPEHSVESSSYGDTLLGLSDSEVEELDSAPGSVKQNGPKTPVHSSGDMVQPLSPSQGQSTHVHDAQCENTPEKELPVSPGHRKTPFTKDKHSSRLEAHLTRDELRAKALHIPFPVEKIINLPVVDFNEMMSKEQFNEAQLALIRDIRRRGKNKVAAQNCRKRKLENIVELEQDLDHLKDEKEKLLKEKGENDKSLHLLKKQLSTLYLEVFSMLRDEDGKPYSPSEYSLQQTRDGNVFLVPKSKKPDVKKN
UniProt Q16665: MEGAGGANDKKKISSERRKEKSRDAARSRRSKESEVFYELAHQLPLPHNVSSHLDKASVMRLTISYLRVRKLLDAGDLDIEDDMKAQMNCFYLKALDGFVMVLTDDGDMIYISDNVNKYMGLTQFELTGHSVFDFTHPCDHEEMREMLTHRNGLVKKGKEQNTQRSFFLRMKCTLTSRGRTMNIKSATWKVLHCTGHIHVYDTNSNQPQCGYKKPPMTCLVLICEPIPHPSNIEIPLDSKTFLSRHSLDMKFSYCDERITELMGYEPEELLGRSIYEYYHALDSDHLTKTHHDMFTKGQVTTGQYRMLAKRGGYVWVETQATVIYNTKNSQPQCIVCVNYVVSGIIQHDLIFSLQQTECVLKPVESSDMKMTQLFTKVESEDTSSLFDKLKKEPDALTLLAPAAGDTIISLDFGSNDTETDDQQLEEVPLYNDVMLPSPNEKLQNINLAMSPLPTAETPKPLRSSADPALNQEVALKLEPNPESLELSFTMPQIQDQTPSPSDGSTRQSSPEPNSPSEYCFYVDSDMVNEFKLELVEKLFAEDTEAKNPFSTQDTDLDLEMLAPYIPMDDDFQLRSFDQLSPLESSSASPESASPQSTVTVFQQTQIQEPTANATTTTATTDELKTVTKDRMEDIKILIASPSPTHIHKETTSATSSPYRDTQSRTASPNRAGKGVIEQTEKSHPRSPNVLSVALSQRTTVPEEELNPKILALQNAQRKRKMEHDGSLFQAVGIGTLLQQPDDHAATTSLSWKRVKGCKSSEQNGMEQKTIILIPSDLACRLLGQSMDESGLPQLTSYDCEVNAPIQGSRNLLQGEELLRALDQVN

Results are given in words; binding and its absence hold for the method and conditions named. In cells and extracts the contact can be indirect. Binding can be weak; no strength is given.

This assay deals with Flag-NRF2 (NF-E2-related factor 2) (UniProt Q16236). The experiment in a line: co-IP; HEK293T cells co-transfected with Flag-NRF2 and p(HA)HIF1alpha-P402A-P564A, 48 h; lysed in caspase lysis buffer; Flag antibody 4 h at 4 °C, then magnetic beads 1 h; washed 4x; western blot with anti-NRF2 and anti-HA; control IP without antibody.

With “(HA)HIF1alpha (P402A,P564A), non-degradable/oxygen-stable form of HIF-1α (from UniProt Q16665 1-826)”, the binding result is “binds”.
